Experimental data as given in the supplement of paper PMC11732987, “Enantioselective OTUD7B fragment discovery through chemoproteomics screening and high-throughput optimisation” (Communications Chemistry, 2025).
Some of the results follow. The data scatter; read single values as rough.

Sequences of proteins named here, by UniProt entry; tags and fusion partners are left off. A change or cut given only in a name is not applied to a line headed by its entry. Residues count along the entry.
UniProt Q8IZD4: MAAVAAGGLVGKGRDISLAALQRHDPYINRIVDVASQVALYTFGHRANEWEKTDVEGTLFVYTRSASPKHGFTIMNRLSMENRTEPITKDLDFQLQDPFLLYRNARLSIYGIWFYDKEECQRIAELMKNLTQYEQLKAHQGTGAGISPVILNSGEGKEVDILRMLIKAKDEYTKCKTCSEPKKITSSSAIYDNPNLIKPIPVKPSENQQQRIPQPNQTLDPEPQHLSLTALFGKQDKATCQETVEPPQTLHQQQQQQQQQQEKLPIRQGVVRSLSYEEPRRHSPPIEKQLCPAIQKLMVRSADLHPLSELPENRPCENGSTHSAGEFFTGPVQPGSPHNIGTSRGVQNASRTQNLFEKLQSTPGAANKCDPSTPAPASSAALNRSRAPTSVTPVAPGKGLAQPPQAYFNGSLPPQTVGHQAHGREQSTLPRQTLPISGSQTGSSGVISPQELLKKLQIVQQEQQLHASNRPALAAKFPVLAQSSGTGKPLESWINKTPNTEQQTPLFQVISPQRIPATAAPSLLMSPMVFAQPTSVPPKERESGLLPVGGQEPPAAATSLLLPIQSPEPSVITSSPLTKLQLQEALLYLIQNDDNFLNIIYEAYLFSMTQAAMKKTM
UniProt Q8IUI8, 74-97: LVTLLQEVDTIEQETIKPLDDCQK
UniProt P41240: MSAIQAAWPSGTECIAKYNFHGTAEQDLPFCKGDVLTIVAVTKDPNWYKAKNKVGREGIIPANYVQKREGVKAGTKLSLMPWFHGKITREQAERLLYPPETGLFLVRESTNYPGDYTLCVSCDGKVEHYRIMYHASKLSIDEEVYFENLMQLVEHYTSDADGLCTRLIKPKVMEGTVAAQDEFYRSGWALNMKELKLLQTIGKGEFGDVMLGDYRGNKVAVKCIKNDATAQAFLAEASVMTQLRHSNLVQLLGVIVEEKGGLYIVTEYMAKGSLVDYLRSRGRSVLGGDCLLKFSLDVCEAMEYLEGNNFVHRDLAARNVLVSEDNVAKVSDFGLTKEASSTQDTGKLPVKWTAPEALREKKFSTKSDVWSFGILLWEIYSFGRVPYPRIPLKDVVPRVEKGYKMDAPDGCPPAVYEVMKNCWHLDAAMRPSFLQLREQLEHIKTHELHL
UniProt Q8TB03: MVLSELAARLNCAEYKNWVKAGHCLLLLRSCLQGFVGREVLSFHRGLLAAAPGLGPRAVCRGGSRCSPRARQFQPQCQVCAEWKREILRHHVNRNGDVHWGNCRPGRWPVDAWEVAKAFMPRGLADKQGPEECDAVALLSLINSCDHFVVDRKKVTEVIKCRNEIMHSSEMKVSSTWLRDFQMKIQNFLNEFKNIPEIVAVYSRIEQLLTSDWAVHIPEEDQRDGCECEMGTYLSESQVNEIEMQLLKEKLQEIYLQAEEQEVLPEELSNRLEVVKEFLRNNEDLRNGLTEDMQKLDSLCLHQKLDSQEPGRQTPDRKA
UniProt P53634: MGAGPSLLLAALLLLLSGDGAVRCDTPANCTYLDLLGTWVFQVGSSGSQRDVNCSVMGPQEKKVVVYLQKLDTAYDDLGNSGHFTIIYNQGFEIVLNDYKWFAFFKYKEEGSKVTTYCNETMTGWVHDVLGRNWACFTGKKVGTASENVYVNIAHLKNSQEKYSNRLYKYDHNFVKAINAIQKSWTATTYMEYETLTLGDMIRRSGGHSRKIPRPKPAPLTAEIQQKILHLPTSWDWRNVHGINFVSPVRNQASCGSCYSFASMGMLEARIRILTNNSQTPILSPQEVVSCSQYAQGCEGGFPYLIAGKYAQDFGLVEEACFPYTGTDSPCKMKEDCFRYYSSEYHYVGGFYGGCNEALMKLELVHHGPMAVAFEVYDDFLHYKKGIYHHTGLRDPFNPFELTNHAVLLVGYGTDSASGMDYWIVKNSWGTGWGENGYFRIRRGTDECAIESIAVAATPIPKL
UniProt Q9NUL7: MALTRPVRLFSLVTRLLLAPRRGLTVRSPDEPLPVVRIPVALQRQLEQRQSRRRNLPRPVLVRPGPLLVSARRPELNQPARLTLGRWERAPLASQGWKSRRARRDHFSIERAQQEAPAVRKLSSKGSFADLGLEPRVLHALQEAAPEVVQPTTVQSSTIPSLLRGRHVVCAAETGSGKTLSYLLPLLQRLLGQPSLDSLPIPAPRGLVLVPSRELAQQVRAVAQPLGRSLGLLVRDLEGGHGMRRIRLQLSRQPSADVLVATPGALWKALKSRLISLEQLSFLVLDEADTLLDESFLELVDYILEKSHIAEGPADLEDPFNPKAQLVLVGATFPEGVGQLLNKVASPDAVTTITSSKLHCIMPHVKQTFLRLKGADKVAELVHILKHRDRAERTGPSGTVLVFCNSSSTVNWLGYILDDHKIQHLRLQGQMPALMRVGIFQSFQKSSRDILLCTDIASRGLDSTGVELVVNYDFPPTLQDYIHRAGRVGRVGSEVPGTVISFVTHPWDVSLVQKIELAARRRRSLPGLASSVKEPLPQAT
UniProt Q6UVK1, whole entry, looked up: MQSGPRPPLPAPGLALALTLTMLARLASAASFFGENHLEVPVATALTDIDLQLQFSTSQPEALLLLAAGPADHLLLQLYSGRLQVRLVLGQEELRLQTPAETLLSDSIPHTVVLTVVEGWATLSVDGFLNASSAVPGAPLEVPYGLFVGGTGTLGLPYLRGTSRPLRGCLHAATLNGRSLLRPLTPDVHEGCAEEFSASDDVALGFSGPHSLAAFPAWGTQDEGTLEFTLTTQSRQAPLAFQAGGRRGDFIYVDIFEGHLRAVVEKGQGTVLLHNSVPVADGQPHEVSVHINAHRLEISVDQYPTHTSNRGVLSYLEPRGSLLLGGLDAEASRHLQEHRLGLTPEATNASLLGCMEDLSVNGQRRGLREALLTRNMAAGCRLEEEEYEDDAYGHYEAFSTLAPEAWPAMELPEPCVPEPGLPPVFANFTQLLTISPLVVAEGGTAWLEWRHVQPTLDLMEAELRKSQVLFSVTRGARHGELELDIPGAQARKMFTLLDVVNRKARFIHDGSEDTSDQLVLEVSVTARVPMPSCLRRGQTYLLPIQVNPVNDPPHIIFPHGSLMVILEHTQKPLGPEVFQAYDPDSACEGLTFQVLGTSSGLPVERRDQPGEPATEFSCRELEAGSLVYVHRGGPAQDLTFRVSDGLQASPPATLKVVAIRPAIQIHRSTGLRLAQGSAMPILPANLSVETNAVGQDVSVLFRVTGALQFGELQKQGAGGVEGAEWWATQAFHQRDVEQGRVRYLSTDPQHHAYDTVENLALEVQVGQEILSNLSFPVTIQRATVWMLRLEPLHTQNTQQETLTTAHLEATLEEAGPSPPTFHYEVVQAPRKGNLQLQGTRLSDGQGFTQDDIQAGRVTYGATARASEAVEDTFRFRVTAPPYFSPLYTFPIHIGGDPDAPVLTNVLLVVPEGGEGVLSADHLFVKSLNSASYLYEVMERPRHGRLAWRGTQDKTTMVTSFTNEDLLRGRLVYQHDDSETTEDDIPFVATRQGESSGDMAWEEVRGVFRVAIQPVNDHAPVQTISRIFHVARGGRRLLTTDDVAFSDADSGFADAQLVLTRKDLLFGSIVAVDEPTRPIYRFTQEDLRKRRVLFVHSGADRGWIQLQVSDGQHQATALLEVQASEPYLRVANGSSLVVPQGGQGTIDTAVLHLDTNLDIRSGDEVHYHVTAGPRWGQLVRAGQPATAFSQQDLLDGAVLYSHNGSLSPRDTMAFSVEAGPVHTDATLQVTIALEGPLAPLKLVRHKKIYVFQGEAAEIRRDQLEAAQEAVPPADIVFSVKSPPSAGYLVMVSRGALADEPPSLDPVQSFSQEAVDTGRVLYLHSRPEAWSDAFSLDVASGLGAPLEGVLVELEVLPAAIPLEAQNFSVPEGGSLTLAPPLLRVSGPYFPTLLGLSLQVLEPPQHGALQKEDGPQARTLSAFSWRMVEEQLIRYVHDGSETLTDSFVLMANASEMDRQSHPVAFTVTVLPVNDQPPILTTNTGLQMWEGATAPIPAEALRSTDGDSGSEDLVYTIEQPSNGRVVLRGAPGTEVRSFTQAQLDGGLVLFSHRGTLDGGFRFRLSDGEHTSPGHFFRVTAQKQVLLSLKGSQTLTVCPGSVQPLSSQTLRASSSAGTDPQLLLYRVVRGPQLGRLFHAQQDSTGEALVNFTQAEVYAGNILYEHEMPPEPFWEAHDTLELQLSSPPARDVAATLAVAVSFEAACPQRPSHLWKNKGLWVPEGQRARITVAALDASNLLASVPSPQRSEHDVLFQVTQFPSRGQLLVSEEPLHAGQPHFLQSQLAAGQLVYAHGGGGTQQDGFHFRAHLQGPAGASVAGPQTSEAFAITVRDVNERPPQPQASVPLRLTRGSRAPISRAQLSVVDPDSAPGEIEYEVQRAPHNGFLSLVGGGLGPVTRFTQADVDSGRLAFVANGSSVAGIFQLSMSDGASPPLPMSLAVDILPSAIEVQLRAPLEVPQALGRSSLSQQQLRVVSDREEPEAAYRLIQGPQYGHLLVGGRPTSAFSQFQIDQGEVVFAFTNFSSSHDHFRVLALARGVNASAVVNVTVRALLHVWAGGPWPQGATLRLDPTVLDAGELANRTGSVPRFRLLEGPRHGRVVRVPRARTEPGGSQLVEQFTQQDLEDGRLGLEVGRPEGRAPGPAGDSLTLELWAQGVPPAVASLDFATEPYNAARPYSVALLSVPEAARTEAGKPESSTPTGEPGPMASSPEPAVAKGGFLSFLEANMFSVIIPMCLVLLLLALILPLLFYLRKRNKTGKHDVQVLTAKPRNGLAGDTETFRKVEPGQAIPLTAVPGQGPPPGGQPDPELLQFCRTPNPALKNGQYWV
UniProt P17844: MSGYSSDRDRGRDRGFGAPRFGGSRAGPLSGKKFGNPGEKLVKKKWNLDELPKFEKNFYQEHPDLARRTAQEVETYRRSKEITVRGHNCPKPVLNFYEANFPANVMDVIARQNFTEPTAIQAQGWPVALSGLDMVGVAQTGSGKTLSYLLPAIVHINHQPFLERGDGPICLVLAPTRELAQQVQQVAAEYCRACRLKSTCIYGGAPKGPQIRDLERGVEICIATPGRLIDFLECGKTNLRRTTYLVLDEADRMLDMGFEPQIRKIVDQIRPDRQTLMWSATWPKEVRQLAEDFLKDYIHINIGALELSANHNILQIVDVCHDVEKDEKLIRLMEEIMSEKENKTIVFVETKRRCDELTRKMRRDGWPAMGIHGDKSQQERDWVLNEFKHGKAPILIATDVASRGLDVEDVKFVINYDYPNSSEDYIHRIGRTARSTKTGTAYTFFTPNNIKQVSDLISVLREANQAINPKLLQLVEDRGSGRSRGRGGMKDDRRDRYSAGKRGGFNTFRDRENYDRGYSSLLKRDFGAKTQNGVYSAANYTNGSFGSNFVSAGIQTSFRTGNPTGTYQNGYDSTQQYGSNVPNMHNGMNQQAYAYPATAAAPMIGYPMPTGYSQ
UniProt P46109: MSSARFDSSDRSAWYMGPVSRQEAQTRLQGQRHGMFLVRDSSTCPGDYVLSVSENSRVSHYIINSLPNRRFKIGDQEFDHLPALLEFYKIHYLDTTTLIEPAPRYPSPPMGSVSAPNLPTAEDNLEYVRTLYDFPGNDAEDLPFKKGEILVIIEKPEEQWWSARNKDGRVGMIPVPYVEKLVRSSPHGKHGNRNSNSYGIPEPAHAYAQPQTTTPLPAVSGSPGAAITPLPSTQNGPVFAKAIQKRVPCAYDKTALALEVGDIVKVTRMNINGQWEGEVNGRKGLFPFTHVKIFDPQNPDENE
UniProt Q13616, whole entry, looked up: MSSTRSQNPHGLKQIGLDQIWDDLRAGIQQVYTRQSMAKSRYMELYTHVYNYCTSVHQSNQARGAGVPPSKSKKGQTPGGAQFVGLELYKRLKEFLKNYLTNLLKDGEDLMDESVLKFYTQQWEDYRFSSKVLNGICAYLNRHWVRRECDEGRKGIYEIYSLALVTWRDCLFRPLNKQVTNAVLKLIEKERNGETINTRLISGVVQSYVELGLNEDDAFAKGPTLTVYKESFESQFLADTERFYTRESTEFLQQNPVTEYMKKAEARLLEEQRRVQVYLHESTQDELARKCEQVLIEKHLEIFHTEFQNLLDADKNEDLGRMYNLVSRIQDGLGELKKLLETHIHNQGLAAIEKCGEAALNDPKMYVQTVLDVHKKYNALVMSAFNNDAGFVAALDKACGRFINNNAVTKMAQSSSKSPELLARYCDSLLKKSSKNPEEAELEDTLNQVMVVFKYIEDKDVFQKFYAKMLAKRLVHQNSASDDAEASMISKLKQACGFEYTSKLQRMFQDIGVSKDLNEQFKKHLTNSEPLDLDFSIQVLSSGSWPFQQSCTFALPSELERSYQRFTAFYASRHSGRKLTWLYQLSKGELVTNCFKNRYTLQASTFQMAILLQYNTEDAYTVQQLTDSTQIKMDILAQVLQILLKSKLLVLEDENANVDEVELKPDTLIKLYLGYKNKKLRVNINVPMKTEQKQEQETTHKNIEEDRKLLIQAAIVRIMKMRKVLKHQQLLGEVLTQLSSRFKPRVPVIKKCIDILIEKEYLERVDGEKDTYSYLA
UniProt Q9UJW0, 38-64: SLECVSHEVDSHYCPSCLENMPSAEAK

Each target was assayed with ClCC(=O)N[C@H]1CCCc2ccccc12 (assay: log2 mean competition ratio of IA-DTB cysteine labelling (DMSO/compound) (log2 ratio); higher = stronger cysteine engagement by compound). Conditions: 50 µM; treatment time: 4 h; cell line lysate: HEK293T.
Description: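 IA-DTB competitive cysteine chemoproteomics in HEK293T RIPA lysate. Lysates were treated with compound 29 or 30 at 50 or 200 µM for 4 h, then IA-DTB (500 µM, 1 h), trypsin-digested, NeutrAvidin-enriched and analysed by diaPASEF. Competition ratio = intensity DMSO / intensity compound (n=4 treated, n=64 DMSO); binding: mean log2 CR ≥ 1 and p ≤ 0.05 plus QC filters. Target is the cysteine site.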

Target | log2 mean competition ratio
DCP1B C369 (UniProt Q8IZD4) | -0.0236
CRLF3 C95 (UniProt Q8IUI8) | -0.0311
CSK C290 (UniProt P41240) | 0.245
CXorf38 C31 (UniProt Q8TB03) | -0.286
DDX50 C396 (UniProt Q9BQ39) | 0.174
CTSC C337 (UniProt P53634) | 0.0107
CSRP2 C58 (UniProt Q16527) | 0.14
DDX28 C170 (UniProt Q9NUL7) | -0.218
CSPG4 C533 (UniProt Q6UVK1) | -0.0475
CSK C411 (UniProt P41240) | -0.147
CUL9 C1281 (UniProt Q8IWT3) | -0.299
CTR9 C1052 (UniProt Q6PD62) | -0.0301
CTNNB1 C520 (UniProt P35222) | 0.0446
DCAF10 C479 (UniProt Q5QP82) | -0.135
DDX5 C200 (UniProt P17844) | 0.378
DDX3X C341 (UniProt O00571) | -0.455
CRKL C249 (UniProt P46109) | 0.352
CUL1 C426 (UniProt Q13616) | 0.157
DCTN4_(C41,C41,C51,C51,C54,C54) (UniProt Q9UJW0) | -0.018
CSTF3 C536 (UniProt Q12996) | 0.0898

Same assay, conditions: 200 µM; treatment time: 4 h; cell line lysate: HEK293T

Target | log2 mean competition ratio
DCP1B C369 (UniProt Q8IZD4) | 0.0727
CRLF3 C95 (UniProt Q8IUI8) | -0.33
CSK C290 (UniProt P41240) | 0.268
CXorf38 C31 (UniProt Q8TB03) | -0.0517
DDX50 C396 (UniProt Q9BQ39) | -0.0884
CTSC C337 (UniProt P53634) | -0.0265
CSRP2 C58 (UniProt Q16527) | -0.253
DDX28 C170 (UniProt Q9NUL7) | 0.105
CSPG4 C533 (UniProt Q6UVK1) | 0.404
CSK C411 (UniProt P41240) | -0.0187
CUL9 C1281 (UniProt Q8IWT3) | 0.208
CTR9 C1052 (UniProt Q6PD62) | -0.311
CTNNB1 C520 (UniProt P35222) | 0.0626
DCAF10 C479 (UniProt Q5QP82) | 0.186
DDX5 C200 (UniProt P17844) | 0.0625
DDX3X C341 (UniProt O00571) | 0.108
CRKL C249 (UniProt P46109) | 0.243
CUL1 C426 (UniProt Q13616) | 0.207
DCTN4_(C41,C41,C51,C51,C54,C54) (UniProt Q9UJW0) | -0.453
CSTF3 C536 (UniProt Q12996) | -0.0933
